Results from article PMC10163288.
Some of the results follow.

B1: il2ra_site1_2b5i_sap_11_mot_HHH_b1_01080_000000017_0001_1_16_H_._ff14572c0aba3614dea9969ee223935d_0001_1_0001_0000300038_0000001_0_0001_af2pred_dldesign_0_af2pr … (protein)
chain: SSSSSSSETKEEIERLLEEARRVDPARANKLLYEALVLARKNKNEELIKEIEAVFKELSSSSSSS
B2: il2ra_site1_3nfp_normal_mot_119b7766384adbe86006a62bce89dba1_0001_af2_000000052_0001_18_32_H_._HHH_b2_08089_0001_0000100002_0000001_0_af2pred_0001_af2pred (protein)
chain: SSSSDEEERRVEELLKQAKELYERGNPREAVEVIREALKLAAESDDPELYKLVREFLRELASSSS
B3: il2ra_site1_2b5i_sap_18_mot_HHH_b1_01384_af2_000000011_0001_43_55_H_._HHH_b1_03047_af2_0001_0000200010_0000001_0_0001_af2pred_dldesign_0_af2pred (protein)
chain: SSSSSEKKELVEELLAEARRLEREGRPEEARRLLLLARRVAKKAKDEELIKKVEALLKELESSSS
B4: il2ra_site2_2erj_normal_mot_90f6a21de4ed711cb697bb9f61d9c40c_0001_af2_000000135_0001_36_50_H_._HHH_b1_06682_af2_0001_0000600010_0000001_0_af2pred_0001_af2pred (protein)
chain: SSSSSDEEEELERFVEELVKELGLSEEQKRFLELLVEQLEESGASEELAREQLEFSARELSSSSS
B5: il2ra_site2_2erj_normal_mot_HHH_b1_08162_af2_000000254_0001_40_56_H_._HHH_b1_05945_0001_0000500015_0000001_0 (protein)
chain: SSSDIEEEIQRLFEEAKELLENGNPEEARKLISRAFELAYEANDPRLAARLQELAAKIFHGSSSS
B6: il2ra_site2_2erj_normal_mot_90f6a21de4ed711cb697bb9f61d9c40c_0001_af2_000000135_0001_36_50_H_._HHH_b2_04009_0001_0000200011_0000001_0_af2pred_0001_1_af2pred_swa … (protein)
chain: SSSSDEEELEQLVERLAKELGASEEAKEIAERVARILKELGFSEEEIELWLRLRLEHLTELSSSS
B7: il2ra_site1_1z92_sap_15_mot_HHH_b1_02810_af2_000000169_0001_43_57_H_._HHH_b1_08445_af2_0001_0000200012_0000001_0_0001_af2pred_dldesign_0_af2pred (protein)
chain: SPAEAALAALIEKLRSDNNPAGLYLADQIERAYKKDINSALKLARKAALASEDEALIAALDAVLA
B8: il2ra_site2_3nfp_normal_mot_HHH_b1_05627_af2_000000038_0001_43_56_H_._HHH_b2_06852_af2_0001_0000500015_0000001_0 (protein)
chain: SSSSDKSEEYLKIALELLREAREEGDEEAARSHAEAALIAAESLNDEEIEKELREILEELSSSSS
B9: il2ra_site2_2erj_sap_24_mot_HHH_b1_05944_000000221_0001_38_56_H_._HHH_b1_06467_0001_0000500030_0000001_0_0001 (protein)
chain: SEEELLEKAKELAPSPLAQDAIEQVEELLEEGDPEQAKLVLETLLRMARWLGDPELARVVEELLR
B10: il2ra_site2_3nfp_normal_mot_HHH_b1_01086_000000225_0001_20_36_H_._9b1ece5d1ebc94355a99c96473898622_0001_1_af2_0001_0000200004_0000001_0_af2pred_0001_af2pred (protein)
chain: SEEEELEREAREDPERFIRRAAEEARELGDFELFAFVAELASKVVNGEIPPEEAAKLVVRVLEES
B11: il2ra_site2_2erj_normal_mot_HHH_b1_03107_000000098_0001_39_52_H_._HHH_b1_02899_0001_0001100024_0000001_0 (protein)
chain: SSSSSDKELWERVAELLQEAAHIPDPEERREVLEEAERLAEELGDEALRRYVEYVARDLSSSSSS
B12: il2ra_site1_2b5i_sap_14_mot_HHH_b2_08221_000000034_0001_1_18_H_._0228f8d829d795bfd6a7b5a883d87c83_0001_0001_0000200009_0000001_0_0001 (protein)
chain: SSSSRLELMQFLLEVVDRLAEELGLDREERKKLVRAALKLAARGVDPEEAEEILEELAEKLSSSS
B13: il2ra_site2_2erj_sap_20_mot_HHH_b1_05749_af2_000000010_0001_23_39_H_._HHH_b2_03235_0001_0000600013_0000001_0_0001 (protein)
chain: SSSSSEDFVRVWELLKELAEAAQRGDEELFEELRRRAEELAQEGNNPLLERFVELQAEDQSSSSS
B14: il2ra_site2_3nfp_normal_mot_HHH_b2_07498_000000293_0001_1_14_H_._HHH_b1_02082_af2_0001_0000600036_0000001_0 (protein)
chain: SSSSDEEEEELKELLKRVEELIKNGDPYEALELLDEVHEIARELNDREAIRLVLELYEELLSSSS
B15: il2ra_site2_2erj_sap_13_mot_ca9eff2b9947dfa32b90907aa01746fa_0001_000000002_0001_18_32_H_._HHH_b2_03173_0001_0000300020_0000001_1_0001 (protein)
chain: SSSSDDELQEEADELFRRAKELFKEGDRERVEELLEIVRELLEEYGDPLLRAVFRIIRFALSSSS
B16: il2ra_site2_3nfp_sap_15_mot_HHH_b2_00102_000000046_0001_18_35_H_._HHH_b1_04540_af2_0001_0000400024_0000001_0_0001_af2pred_0001_1_af2pred_swapped (protein)
chain: SSSSSEEEEEVEKLLKEAEELLKRGDPEEAERVVLEAFKIARELNNEELLELIFRLFEKILSSSS
B17: il2ra_site1_3nfp_sap_13_mot_d8099cd8ef6a59b9c03de2010570d688_0001_af2_000000259_0001_37_51_H_._HHH_b1_03767_0001_0000400019_0000001_0_0001_af2pred_0001_af2pred_ … (protein)
chain: SSSSSEEEVRRVLEEAREAFEEGDQKRVDELIRLAARLASKNNDEEALELVEEFMREIAKKSSSS
B18: il2ra_site1_1z92_sap_12_mot_e933875d0a4b1ebfe8e667f01481c16a_0001_1_af2_000000278_0001_14_28_H_._d36a458fe49fd8718958d6305eabf003_0001_0001_0000100020_0000001_0 … (protein)
chain: GPEEVLEELKETGDPVLLTFVSFFERLLKMGASPEMIVEHLKRAAKLMGNPNLEEAIRLFEELLR
B19: il2ra_site1_1z92_sap_14_mot_HHH_b1_04488_000000139_0001_42_58_H_._HHH_b2_01301_af2_0001_0000200016_0000001_1_0001 (protein)
chain: DIERAVEQLTEFIAKAAGVPSVEVTSKDGTFTLHVEGDDEAAERAERLFEKFAEKLGLPFSVEKH

Biological target: il2ra, P01589
Experiment: yeast display titration

| Binder | apparent Kd |
| --- | --- |
| B1 | inactive: no binding seen |
| B2 | inactive: no binding seen |
| B3 | inactive: no binding seen |
| B4 | inactive: no binding seen |
| B5 | inactive: no binding seen |
| B6 | inactive: no binding seen |
| B7 | inactive: no binding seen |
| B8 | inactive: no binding seen |
| B9 | inactive: no binding seen |
| B10 | inactive: no binding seen |
| B11 | inactive: no binding seen |
| B12 | inactive: no binding seen |
| B13 | inactive: no binding seen |
| B14 | inactive: no binding seen |
| B15 | inactive: no binding seen |
| B16 | inactive: no binding seen |
| B17 | inactive: no binding seen |
| B18 | inactive: no binding seen |
| B19 | inactive: no binding seen |

Shown as comma-separated lines: entries from further up
Binder,apparent Kd
B10,inactive: no binding seen
B13,inactive: no binding seen
